Measured values from patent US6872803B1 (Kyowa Hakko Kogyo Co., Ltd., priority 1993, dated 2005).
The star is where a group is joined. Fmoc = O=C(OCC1c2ccccc2-c2ccccc21)*

Assay: solid-phase peptide synthesis
Settings: whole synthesis, scale 0.5 mmol

Fmoc-GNWHGTAP-OH
crude mass: 464.0 mg | isolated mass: 131.9 mg
